Reference: PMC10942982
Results are given in words; binding and its absence hold for the method and conditions named. Binding seen in cells or lysates may run through a third protein. Some results given as binding are weak or reduced against the parent protein; the word gives no strength. For part of these data: Where a sequence is shown, tags or fusion partners need not be part of it. One block for each binder: values may come before it.

Experiments:
Assay in all cases: co-IP; GFP-Trap beads on total cell lysates in 0.5% NP-40 lysis buffer (10 mM Tris/Cl pH 7.5, 150 mM NaCl, 0.5 mM EDTA), washed three times with lysis buffer, immunoblotting
[1] = molecular target: T1, GFP-tagged wildtype VPS37A (human), Q8NEZ2; conditions: remark: other sources report otherwise
T1 chain: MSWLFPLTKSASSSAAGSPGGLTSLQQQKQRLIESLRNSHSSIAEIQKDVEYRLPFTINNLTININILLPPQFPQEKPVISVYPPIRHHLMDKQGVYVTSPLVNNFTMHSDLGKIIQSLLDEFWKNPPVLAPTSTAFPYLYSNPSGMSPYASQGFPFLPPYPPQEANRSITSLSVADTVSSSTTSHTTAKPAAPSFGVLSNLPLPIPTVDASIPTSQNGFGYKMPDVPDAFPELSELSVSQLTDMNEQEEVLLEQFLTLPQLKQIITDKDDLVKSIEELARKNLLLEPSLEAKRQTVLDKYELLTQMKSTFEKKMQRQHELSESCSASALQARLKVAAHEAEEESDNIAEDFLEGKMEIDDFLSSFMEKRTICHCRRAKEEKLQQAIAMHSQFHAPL

[2] = molecular target: GFP-tagged VPS37A mutant with both 3WLFP and 137FPYL motifs mutated to DDDD (human) (UniProt Q8NEZ2)
[3] = molecular target: GFP-tagged wildtype VPS37A (human) (UniProt Q8NEZ2)

binding [1]: binds
B1: VPS28, Q9UK41 1-221 (protein)
chain: MFHGIPATPGIGAPGNKPELYEEVKLYKNAREREKYDNMAELFAVVKTMQALEKAYIKDCVSPSEYTAACSRLLVQYKAAFRQVQGSEISSIDEFCRKFRLDCPLAMERIKEDRPITIKDDKGNLNRCIADVVSLFITVMDKLRLEIRAMDEIQPDLRELMETMHRMSHLPPDFEGRQTVSQWLQTLSGMSASDELDDSQVRQMLFDLESAYNAFNRFLHA

binding [2]: binds
binding [3]: binds
B2: UBAP1 (protein, UniProt Q9NZ09 1-502)
chain: MASKKLGADFHGTFSYLDDVPFKTGDKFKTPAKVGLPIGFSLPDCLQVVREVQYDFSLEKKTIEWAEEIKKIEEAEREAECKIAEAEAKVNSKSGPEGDSKMSFSKTHSTATMPPPINPILASLQHNSILTPTRVSSSATKQKVLSPPHIKADFNLADFECEEDPFDNLELKTIDEKEELRNILVGTTGPIMAQLLDNNLPRGGSGSVLQDEEVLASLERATLDFKPLHKPNGFITLPQLGNCEKMSLSSKVSLPPIPAVSNIKSLSFPKLDSDDSNQKTAKLASTFHSTSCLRNGTFQNSLKPSTQSSASELNGHHTLGLSALNLDSGTEMPALTSSQMPSLSVLSVCTEESSPPNTGPTVTPPNFSVSQVPNMPSCPQAYSELQMLSPSERQCVETVVNMGYSYECVLRAMKKKGENIEQILDYLFAHGQLCEKGFDPLLVEEALEMHQCSEEKMMEFLQLMSKFKEMGFELKDIKEVLLLHNNDQDNALEDLMARAGAS
